Measured values published in PMC6208484.

Assays:
[1] = target: HA-Core (HCV Core protein) (hepatitis C virus); test: co-IP; 293T cells co-transfected with Flag-RBM24 and HA-Core or HA-NS3/4A; lysates precipitated with anti-HA mouse monoclonal antibody or control IgG in the presence of RNase A (20 ug/mL, overnight, 4 C); blots with anti-HA and anti-[…]
[2] = target: HA-NS5B (HCV NS5B) (hepatitis C virus); test: co-IP; lysate of 293T cells transfected with pFlag-RBM24 and pHA-NS5A, or pFlag-RBM24 and pHA-NS5B

B1: Flag-RBM24 (RNA binding motif protein 24) (protein, UniProt Q9BX46-1 1-236)
chain: MHTTQKDTTYTKIFVGGLPYHTTDASLRKYFEVFGEIEEAVVITDRQTGKSRGYGFVTMADRAAAERACKDPNPIIDGRKANVNLAYLGAKPRIMQPGFAFGVQQLHPALIQRPFGIPAHYVYPQAFVQPGVVIPHVQPTAAAASTTPYIDYTGAAYAQYSAAAAAAAAAAAYDQYPYAASPAAAGYVTAGGYGYAVQQPITAAAPGTAAAAAAAAAAAAAFGQYQPQQLQTDRMQ
[1]
  binding: binds
[2]
  binding: no binding

No constants are given. Whether binding was seen depends on the method and setting. Binding seen in cells or lysates may run through a third protein. For some assays here: A result given as binding can be weak or reduced; the word gives no strength. Sequences can lack the tags named with a protein.
